# Several values for one entry are separate records, joined by “and”; a condition that tells them apart may be missing. Equal entries are not always repeated. Among all 360,000 compounds or so, about 7,500 (2.1%) were called active. Inconclusive means that the source gave no clear call. Such entries were picked first, then a sample of the others. Calls follow the shape of the dose curve; as a rule, active = well fitted inhibition curve with a large enough effect; inconclusive = small, poorly fitted or top-dose-only effect, or effect the other way; inactive = flat fitted curve, though single readings scatter. Potencies beside an inconclusive call are fits to weak or partial responses and may not hold up.
# Assay: Nrf2 qHTS screen for inhibitors; also: nearly all actives have a fitted effect of over 60% in size
# Conditions: A549 ARE-Fluc reporter, luciferase luminescence, 18-24 h; activity change, negative = inhibition: at 46 µM (top of the series)
# Method in brief: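 Two sequential reads on A549 ARE_Fluc cells exposed to compound for 18-24 h: a CellTiter-Fluor fluorescence read for viability, then a luciferase luminescence read for Nrf2/ARE activity.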
# % is scaled to controls: 0 for no effect and ±100 for the full control effect; potency is read from the fitted curve at half-maximal effect.
SMILES,Potency,"activity change, negative = inhibition"
Cc1cccc(/C=C2/Sc3ccc(C(=O)N4CCOCC4)cc3NC2=O)c1,"inconclusive: 11.6 µM [falling, partial curve]",–
Cc1ccc(-c2csc(NCCn3c(-c4ccncc4)nc4cc(C(F)(F)F)ccc43)n2)cc1,–,inactive: -5.94%
C[C@@H](NC(=O)c1nc[nH]c1C(=O)NCc1ccc(CNC(=O)OC(C)(C)C)cc1)c1ccccc1,"inconclusive: 29.1 µM [falling, single point]",–
C[C@]12C=CC(=O)C=C1CC[C@H]1[C@@H]3C[C@@H](O)[C@](O)(C(=O)CO)[C@@]3(C)C[C@H](O)[C@@]12F,active: 0.411 µM,–
Cn1c(=O)c2c(-c3ccccc3)n3c4ccccc4nc(-c4ccccc4)c3c2n(C)c1=O,–,inactive: -14.3%
Cc1cccc(-c2noc(CN(C(=O)C(c3ccccc3)c3ccccc3)C(C)C)n2)c1,"inconclusive: 29.1 µM [falling, single point]",–
COc1ccc(C(=O)NCC(c2cccnc2)N2CCc3ccccc3C2)cc1OC (stereo unspecified),"inconclusive: 29.1 µM [activator, single point]",–
CCOc1ccc(S(N)(=O)=O)cc1-c1nc2c(C(C)(C)C)nn(C)c2c(=O)[nH]1,"inconclusive: 14.6 µM [falling, partial curve, poor fit]",–
Cc1cc(C(=O)COC(=O)c2ccc(O)cc2)c(C)n1-c1ccccc1F,"inconclusive: 20.6 µM [activator, partial curve]",–
O=C(Nc1ccccc1)c1cnc2n(c1=O)CCS2,"inconclusive: 29.1 µM [activator, single point]",–
O=C1C2CC=C(Cl)CC2C(=O)N1CC1OCCc2ccccc21 (stereo unspecified),"inconclusive: 2.31 µM [falling, full curve, poor fit]",–
COC(=O)[C@]1(Cc2ccccc2)N[C@H](CN(C)C(=O)c2ccc(C(C)(C)C)cc2)[C@@H]2C(=O)N(Cc3ccccc3)C(=O)[C@@H]21,"inconclusive: 18.4 µM [falling, single point]",–
COc1ccc(OCCN2CCN(S(=O)(=O)c3ccccc3C(F)(F)F)CC2)cc1,"inconclusive: 11.6 µM [falling, partial curve, poor fit]",–
O=C(Nc1ccc(NC(=O)c2ccco2)c(Cl)c1)c1ccc2c(c1)OCCO2,"inconclusive: 29.1 µM [falling, single point]",–
Clc1ccc(-c2nnc(-c3ccccc3)o2)c(Cl)c1,"inconclusive: 4.11 µM [activator, partial curve, poor fit]",–
CCn1nc([N+](=O)[O-])c(C(C#N)c2nc3cc(C(F)(F)F)ccc3s2)c(Cl)c1=O (stereo unspecified),active: 8.2 µM,–
CC(=O)c1c(C)[nH]c(C(=O)OCC(=O)Nc2cc(S(=O)(=O)N3CCCC3)ccc2Cl)c1C,active: 20.6 µM,–
Cc1noc(C)c1-c1ccc2ncnc(NCc3ccc(F)c(F)c3)c2c1,–,inactive: -20.5%
COc1ccc(CCNS(=O)(=O)c2ccc(N3CCCC3=O)cc2)cc1,active: 25.9 µM,–
CN(CC1CCCO1)S(=O)(=O)c1ccc(C(=O)Nc2ccc(S(N)(=O)=O)cc2)cc1 (stereo unspecified),"inconclusive: 0.259 µM [falling, full curve]",–
CCOC(=O)/C(C#N)=C\c1cn(C)c2ccccc12,–,inactive: 19.7%
COc1ccc(NC(=O)c2csc3c2CCCCC3)cc1,"inconclusive: 2.91 µM [activator, full curve]",–

SMILES,Potency,"activity change, negative = inhibition"
COc1cc(OC)cc(-c2c(-c3ccc(F)cc3)c3cc(-c4cnc(OC)nc4)ccc3n2C)c1,"inconclusive: 0.0651 µM [falling, full curve, poor fit]",–
O=C1C=CC(=O)N1CCCCCCN1C(=O)C=CC1=O,"inconclusive: 29.1 µM [falling, single point]",–
COc1ccc2nc(SCC(=O)N3CCCCC3)c(C#N)cc2c1,"inconclusive: 23.1 µM [activator, single point]",–
O=S(=O)(NCc1cccs1)c1ccc(Br)cc1,–,inactive: -3.52%
CON(C)C(=O)/C=C/c1ccc([B-](F)(F)F)cc1,"inconclusive: 13 µM [activator, partial curve, poor fit]",–
CN(C)c1ccc(-c2cc3ccccc3c(=O)o2)cc1,"inconclusive: 29.1 µM [activator, single point]",–
Cc1ccc(OCCC(=O)OCC(=O)NNC(=O)c2ccccc2)cc1,"inconclusive: 4.61 µM [activator, partial curve, poor fit]",–
Cc1ccc(S(=O)(=O)NCc2ccccc2)cc1C(=O)N(C)Cc1ccc(F)cc1,active: 23.1 µM,–
O=C(CSc1cn(Cc2ccccc2)c2ccccc12)N1CCOCC1,"inconclusive: 6.51 µM [activator, full curve, poor fit]",–
Cc1ccc(S(=O)(=O)N2CCN(c3ncnc4ccccc34)CC2)cc1,active: 2.31 µM and active: 8.2 µM,–
CCOC(=O)c1cnc2ccc(C)cc2c1NCCO,–,inactive: -8.07%
Cc1ccc(-c2ccc(/C=N/N=C3/NC(=O)C(CC(=O)O)S3)o2)c([N+](=O)[O-])c1 (stereo unspecified),–,inactive: -3.68%
COc1cc(OC)cc(-c2c(C#Cc3ccsc3)c3cc(-c4ccccc4OC)ccc3n2C)c1,"inconclusive: 29.1 µM [activator, single point]",–
COc1cc(CNCCc2c[nH]c3ccccc23)ccc1OCc1ccc(F)cc1,–,inactive: 12.1%
Cc1nc2cc(NC(=O)Nc3cccc(F)c3)ccc2n1C,"inconclusive: 1.3 µM [activator, full curve]",–
CC(=O)OCC1=C(C(=O)O)N2C(=O)C(NC(=O)c3ccc(COc4c(C)cccc4Cl)o3)C2SC1 (stereo unspecified),"inconclusive: 16.4 µM [activator, partial curve, poor fit]",–
COc1cc(/C=C2/C(=O)N(C)C(=S)N2C)ccc1OCc1cccc(F)c1,"inconclusive: 2.31 µM [falling, full curve, poor fit]",–
CCn1c(=O)c2cc(C(=O)Nc3cc(F)ccc3F)sc2c2ccccc21,–,inactive: 11.3%
COc1ccc(C(=O)OCC(=O)N2CC(=O)Nc3ccccc32)cc1Br,–,inactive: -7.14%
Cc1ccc(CNC(=O)C(=O)NCC2CCCN2S(=O)(=O)c2cc(C)ccc2C)cc1 (stereo unspecified),"inconclusive: 16.4 µM [falling, partial curve, poor fit]",–
Nc1ccc(N(c2ccccc2)c2ccc(N)cc2)cc1,"inconclusive: 6.51 µM [falling, partial curve, poor fit]",–
CCN(CC)C(=O)C(C)N(C#N)c1nc(NC(C)C)nc(NC(C)C)n1 (stereo unspecified),"inconclusive: 0.058 µM [falling, full curve, poor fit]",–

SMILES,Potency,"activity change, negative = inhibition"
NC(=O)c1ccc(C(F)(F)F)cn1,"inconclusive: 6.51 µM [activator, single point]",–
Cc1cc2c(s1)c1cnn(Cc3ccccc3)c(=O)c1n2C,"inconclusive: 23.1 µM [falling, single point]",–
O=C(Cc1n[nH]c(=O)c2ccccc12)N1CCN(S(=O)(=O)c2ccc(F)c(Cl)c2)CC1,"inconclusive: 2.59 µM [falling, partial curve, poor fit]",–
CC(c1ccncn1)N(C)Cc1nc(-c2ccc(C(F)(F)F)cc2)no1 (stereo unspecified),"inconclusive: 29.1 µM [falling, single point]",–
Cc1ccc(CN2CCC(CNc3ncnc4onc(-c5ccc(F)cc5)c34)CC2)cc1,"inconclusive: 5.8 µM [activator, partial curve]",–
COC(=O)c1cc(CSc2nc3ccccc3[nH]2)oc1C,"inconclusive: 29.1 µM [falling, single point]",–
CCC(Sc1ncccc1C(=O)Oc1cccc([N+](=O)[O-])c1)C(=O)Nc1ccccc1OC (stereo unspecified),–,inactive: 9.67%
CN(C)c1ccc(C(=O)OCc2cc(=O)n3ccsc3n2)cc1,"inconclusive: 3.26 µM [activator, partial curve]",–
COC(=O)CN(C(=O)CSc1nnc(-c2cccc(OC)c2)o1)c1ccc(OC)cc1,"inconclusive: 6.51 µM [falling, partial curve, poor fit]",–
CCOC(=O)c1c(NC(=O)c2cccnc2)sc(C)c1C,"inconclusive: 25.9 µM [falling, single point]",–
CCCn1c(SCC(=O)Nc2ccccc2C(=O)OC)nc2c1c(=O)n(C)c(=O)n2C,–,inactive: 5.34%
Cc1ccc(NC(=O)C2COc3ccccc3O2)cc1 (stereo unspecified),"inconclusive: 5.8 µM [activator, partial curve]",–
COc1ccc(NC(=O)c2cc(CC(C)C)nc3ccccc23)cc1,"inconclusive: 8.2 µM [falling, partial curve, poor fit]",–
CCN(CC)CCNC(=O)c1cc2c(s1)-c1ccccc1SC2,–,inactive: 0.622%
CC1CCN(C(=O)Cn2cc(SCC(=O)NCc3ccccc3Cl)c3ccccc32)CC1,–,inactive: -30.7%
O=C(Cn1cnc2c(oc3ccccc32)c1=O)Nc1ccccc1C(F)(F)F,–,inactive: 12.5%
O=C(C=Cc1ccc2c(c1)OCO2)c1ccccc1,"inconclusive: 23.1 µM [activator, partial curve]",–
Cc1ccc(-c2nnc(Nc3cccc(Cl)c3)c3ccccc23)cc1S(=O)(=O)N1CCOCC1,"inconclusive: 8.2 µM [falling, partial curve, poor fit]",–
Cc1cc(C)c2cc(C(=O)N3CCC(C(=O)c4ccc(F)cc4)CC3)[nH]c2c1,"inconclusive: 29.1 µM [falling, single point]",–
O=C(OCC#CCSc1nnc(-c2cccc3ccccc23)o1)c1ccc(Cl)c(C(F)(F)F)c1,–,inactive: 1.55%
CC1(C)O[C@@H]2C[C@H]3[C@@H]4CCC5=CC(=O)CC[C@]5(C)[C@@]4(F)[C@@H](O)C[C@]3(C)[C@]2(C(=O)CCl)O1,active: 0.0116 µM,–
Cc1cc(NC(=O)CN2CCCCC2)no1,–,inactive: 2.89%

# Record cards, from the list above:
# O=C(OCC#CCSc1nnc(-c2cccc3ccccc23)o1)c1ccc(Cl)c(C(F)(F)F)c1 is entered as activity change, negative = inhibition: inactive: 1.55%
# CC1(C)O[C@@H]2C[C@H]3[C@@H]4CCC5=CC(=O)CC[C@]5(C)[C@@]4(F)[C@@H](O)C[C@]3(C)[C@]2(C(=O)CCl)O1 is entered as Potency: active: 0.0116 µM
# Cc1ccc(NC(=O)C2COc3ccccc3O2)cc1 (stereo unspecified) is entered as Potency: inconclusive: 5.8 µM [activator, partial curve]
# CC(c1ccncn1)N(C)Cc1nc(-c2ccc(C(F)(F)F)cc2)no1 (stereo unspecified) is entered as Potency: inconclusive: 29.1 µM [falling, single point]
